Results are given in words; binding and its absence hold for the method and conditions named. Binding seen in cells or lysates may run through a third protein. Some results given as binding are weak or reduced against the parent protein; the word gives no strength.
T1: PfAlba1-Ty1 (Plasmodium falciparum) (UniProt Q8IAX8)
T1 sequence: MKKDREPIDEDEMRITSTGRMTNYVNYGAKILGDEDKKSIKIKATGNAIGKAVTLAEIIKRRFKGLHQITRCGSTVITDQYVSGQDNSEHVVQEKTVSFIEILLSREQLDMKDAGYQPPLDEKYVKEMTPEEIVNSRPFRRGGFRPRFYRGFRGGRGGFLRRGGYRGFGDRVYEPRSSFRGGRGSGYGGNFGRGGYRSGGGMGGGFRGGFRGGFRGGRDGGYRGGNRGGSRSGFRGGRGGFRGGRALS

T2: PfAlba2 (Plasmodium falciparum) (UniProt Q8IDN4)
T2 sequence: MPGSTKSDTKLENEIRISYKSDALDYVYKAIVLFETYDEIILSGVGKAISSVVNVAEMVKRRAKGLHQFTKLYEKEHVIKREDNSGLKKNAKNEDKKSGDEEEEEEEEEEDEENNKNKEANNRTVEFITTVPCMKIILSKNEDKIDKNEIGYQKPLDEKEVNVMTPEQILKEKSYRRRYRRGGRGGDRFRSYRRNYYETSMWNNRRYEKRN

T3: endogenous PfAlba1 (Plasmodium falciparum (endogenous in 3D7 parasites)) (UniProt Q8IAX8)
T3 sequence: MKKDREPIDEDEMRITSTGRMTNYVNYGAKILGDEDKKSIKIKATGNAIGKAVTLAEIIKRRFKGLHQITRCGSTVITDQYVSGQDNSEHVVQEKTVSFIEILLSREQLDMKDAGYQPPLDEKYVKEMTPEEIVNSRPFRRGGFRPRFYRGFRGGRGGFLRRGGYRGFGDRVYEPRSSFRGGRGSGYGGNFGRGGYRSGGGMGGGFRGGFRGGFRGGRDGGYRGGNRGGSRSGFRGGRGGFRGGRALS


What was measured:
[1] = biological target: T1, PfAlba1-Ty1 (Plasmodium falciparum); experiment: co-IP; PfAlba1-Ty1 immunoprecipitated with rabbit anti-Ty1 antibodies from non-denaturing lysates of 3D7+PfAlba1-Ty1 trophozoites (28-30 h; also schizonts, 42-45 h) grown at 5 ug/ml blasticidin-S, with RNAsin; western blot with anti-PfAlba1 antibodies
[2] = biological target: T2, PfAlba2 (Plasmodium falciparum); experiment: co-IP; data not shown; during the IDC; bait and antibodies not stated
[3] = biological target: T3, endogenous PfAlba1 (Plasmodium falciparum (endogenous in 3D7 parasites)); experiment: as above

binding [1]	binding [2]	binding [3]	Binder
binds			endogenous PfAlba1 (protein, UniProt Q8IAX8 1-248) MKKDREPIDEDEMRITSTGRMTNYVNYGAKILGDEDKKSIKIKATGNAIGKAVTLAEIIKRRFKGLHQITRCGSTVITDQYVSGQDNSEHVVQEKTVSFIEILLSREQLDMKDAGYQPPLDEKYVKEMTPEEIVNSRPFRRGGFRPRFYRGFRGGRGGFLRRGGYRGFGDRVYEPRSSFRGGRGSGYGGNFGRGGYRSGGGMGGGFRGGFRGGFRGGRDGGYRGGNRGGSRSGFRGGRGGFRGGRALS
	binds	binds	PfAlba4 (protein, UniProt A0A5K1K8Y8 1-372) MENDKKHNQKQNNVDENEFPNSKVLLVSVKRTRRFLERTARELLAGGTRYIILSGLGDALPLCVQLQSSLQSKNAANVVKIETSYSYFNSNYSYTPGLKIYMEKHPEFKGSRISPGYVSFHEKTDSFTPIYDENPNEYICSLNAGDNNLYVGGEGINGAFSELLSSHNQEVDKYESLFKELLTKAVNENGEKPDEEVKSVLYDNVDKKYPDVKLALCRIRNSLKKGSDHSTGSVFIVTFKKNFPHKKEKNMGMVYVVGPKGKNYNSVEEFLDEVQETAENLMTTLCDYNGLVKREEIKHVRMNTCRICLFSGSIFKHPNASKLDVAKAILNGLAVGYRHGPSPRLNFAYDENVFKDAWVETTGLQVFNHNEQ
